Experimental data as given in patent publication US20200181263A1.
These are yes or no findings as the source states them, for the method shown. Some entries that bind do so weakly or less than the wild type.

By UniProt entry, the sequences of proteins in these tests, tags left out. Where a name states a change or a piece, a line headed by the entry shows the natural chain unless it says otherwise.
UniProt P09693: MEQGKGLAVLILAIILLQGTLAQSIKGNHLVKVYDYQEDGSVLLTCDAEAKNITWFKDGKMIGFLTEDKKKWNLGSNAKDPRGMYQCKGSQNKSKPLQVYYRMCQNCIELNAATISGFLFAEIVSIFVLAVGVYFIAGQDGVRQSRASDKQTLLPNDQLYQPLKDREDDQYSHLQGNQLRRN
UniProt P07766: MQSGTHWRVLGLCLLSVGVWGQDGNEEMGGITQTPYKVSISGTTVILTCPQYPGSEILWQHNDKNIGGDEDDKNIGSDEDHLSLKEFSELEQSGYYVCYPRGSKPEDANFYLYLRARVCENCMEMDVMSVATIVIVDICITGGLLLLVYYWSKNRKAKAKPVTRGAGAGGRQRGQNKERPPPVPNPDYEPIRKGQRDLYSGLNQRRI

B1: PRO746 (MATCH) (protein)
chain 1: DIQMTQSPSSLSASVGDRVTITCQASENIYSFLAWYQQKPGKAPKLLIYSASKLAAGVPSRFSGSGSGTDFTLTISSLQPEDFATYYCQQTNRYSNPDIYNVFGTGTKVTVLGGGGGSGGGGSGGGGSGGGGSEVQLVESGGGLVQPGGSLRLSCAASGIDFNSNYYMCWVRQAPGKGLEWIGCIYVGSHVNTYYANWAKGRFTISRDNSKNTVYLQMNSLRAEDTAVYYCATSGSSVLYFKFWGQGTLVTVSSGGGGSGGGGSDIQMTQSPSSLSASVGDRVTITCQSSQSVFSNNYLAWFQQKPGQSPKRLIYSASTLASGVPSRFSGSGSGTDFTLTISSLQPEDFATYYCLGSYACSSADCYVFGCGTKVTVLGEPEPEPEPEPEPEPDIQMTQSPSSLSASVGDRVTITCQSSESVYSNNQLSWYQQKPGQPPKLLIYDASDLASGVPSRFSGSGSGTDFTLTISSLQPEDFATYYCAGGFSSSSDTAFGGGTKLTVLG
chain 2: DIQMTQSPSSLSASVGDRVTITCQASENIYSFLAWYQQKPGKAPKLLIYSASKLAAGVPSRFSGSGSGTDFTLTISSLQPEDFATYYCQQTNRYSNPDIYNVFGTGTKVTVLGGGGGSGGGGSGGGGSGGGGSEVQLVESGGGLVQPGGSLRLSCAASGIDFNSNYYMCWVRQAPGKGLEWIGCIYVGSHVNTYYANWAKGRFTISRDNSKNTVYLQMNSLRAEDTAVYYCATSGSSVLYFKFWGQGTLVTVSSGGGGSGGGGSEVQLVESGGGLVQPGGSLRLSCAASGFSLSSNAMGWVRQAPGKGLEYIGIISVGGFTYYASWAKGRFTISRDNSKNTVYLQMNSLRAEDTATYFCARDRHGGDSSGAFYLWGQGTLVTVSSKPKPKPKPKPKPKPEVQLVESGGGLVQPGGSLRLSCAASGFSLSSYDMSWVRQAPGKCLAWIGASYASGPTYYASWAKGRFTISRDNSKNTVYLQMNSLRAEDTATYFCARGGWTGTSHSNIWGQGTLVTVSS
B2: PRO733 (protein)
chain 1: DIQMTQSPSSLSASVGDRVTITCQASENIYSFLAWYQQKPGKAPKLLIYSASKLAAGVPSRFSGSGSGTDFTLTISSLQPEDFATYYCQQTNRYSNPDIYNVFGTGTKVTVLGGGGGSGGGGSGGGGSGGGGSEVQLVESGGGLVQPGGSLRLSCAASGIDFNSNYYMCWVRQAPGKGLEWIGCIYVGSHVNTYYANWAKGRFTISRDNSKNTVYLQMNSLRAEDTAVYYCATSGSSVLYFKFWGQGTLVTVSSGGGGSGGGGSDIQMTQSPSSLSASVGDRVTITCQSSESVYNNKRLSWYQQKPGKAPKLLIYTASSLASGVPSRFSGSGSGTDFTLTISSLQPEDFATYYCQGEFTCSNADCFTFGCGTKVTVLGSGGGGSGGGGSDIQMTQSPSSLSASVGDRVTITCQSSESVYSNNQLSWYQQKPGQPPKLLIYDASDLASGVPSRFSGSGSGTDFTLTISSLQPEDFATYYCAGGFSSSSDTAFGGGTKLTVLG
chain 2: DIQMTQSPSSLSASVGDRVTITCQASENIYSFLAWYQQKPGKAPKLLIYSASKLAAGVPSRFSGSGSGTDFTLTISSLQPEDFATYYCQQTNRYSNPDIYNVFGTGTKVTVLGGGGGSGGGGSGGGGSGGGGSEVQLVESGGGLVQPGGSLRLSCAASGIDFNSNYYMCWVRQAPGKGLEWIGCIYVGSHVNTYYANWAKGRFTISRDNSKNTVYLQMNSLRAEDTAVYYCATSGSSVLYFKFWGQGTLVTVSSGGGGSGGGGSEVQLVESGGGLVQPGGSLRLSCAASGFPLSSYAMIWVRQAPGKCLEWIGMILRAGNIYYASWVKGRFTISRDNSKNTVYLQMNSLRAEDTAVYYCARRHYNREGYPIGIGDLWGQGTLVTVSSSGGGGSGGGGSEVQLVESGGGLVQPGGSLRLSCAASGFSLSSNAMGWVRQAPGKGLEYIGIISVGGFTYYASWAKGRFTISRDNSKNTVYLQMNSLRAEDTATYFCARDRHGGDSSGAFYLWGQGTLVTVSS

Target: human CD3 gamma-epsilon single-chain (human) (UniProt P09693+P07766)
Test: SPR

Row | Binder | binding
1 | B1 | binds
2 | B2 | binds
